From patent US8071627B2, “2-pyridinylethylcarboxamide derivatives and their use as fungicides” (Bayer SAS, priority 2003, dated 2011)
Some entries share one result that the patent states for a list of compounds. For at least one compound, name, drawing or mass did not settle the structure.

What was measured:
Pyrenophora teres = test: In vivo test on Pyrenophora teres (barley net blotch), barley plants, preventive spray; details: 330 ppm; barley plants (Express variety); sprayed 24 hours before contamination; grading 12 days after contamination vs control plants
Alternaria brassicae = test: In vivo test on Alternaria brassicae (leaf spot of crucifers), radish plants, preventive spray; details: 330 ppm; radish plants (Pernot variety); sprayed 24 hours before contamination; grading 6 to 7 days after contamination vs control plants
Procedure: The active ingredient tested is prepared by potter homogenisation in a concentrated suspension type formulation at 100 g/l. This suspension is then diluted with water to obtain the desired active material concentration.
Radish plants (Pernot variety) in starter cups, sown on a 50/50 peat soil-pozzolana substrate and grown at 18-20° C., are treated at the cotyledon stage by spraying with the aqueous suspension described above.
Plants, used as controls, are treated with an aqueous solution not containing the active material.
After 24 hours, the plants are contaminated by spraying them with an aqueous suspension of Alternaria brassicae spores (40,000 spores per cm^3). The spores are collected from a 12-13-day-old culture.
The contaminated radish plants are incubated for 6-7 days at about 18° C., under a humid atmosphere.
Grading is carried out 6 to 7 days after the contamination, in comparison with the control plants.

Row | Structure (SMILES) | protection (good (at least 50%) to total) (Pyrenophora teres) | protection (good (at least 50%) to total) (Alternaria brassicae)
1 | Cc1nc(C(F)(F)F)c(C(=O)NCC(C)c2ccc(C(F)(F)F)cn2)s1 (stereo not shown) [Compound 56] | at least 50% | –
2 | CC(CNC(=O)c1cn(C)nc1C(F)(F)F)c1ccc(C(F)(F)F)cn1 (stereo not shown) [Compound 57] | at least 50% | –
3 | CC(CNC(=O)c1sccc1I)c1ccc(C(F)(F)F)cn1 (stereo not shown) [Compound 58] | at least 50% | at least 50%
